Measured values reported in PMC7205425.
No constants are given. Whether binding was seen depends on the method and setting. Binding seen in cells or lysates may run through a third protein. Binding can be weak; no strength is given. Tags and fused reporters may be left off the sequences shown.

target: T1, G protein subunit α 11 (Gα11), myc-tagged (mouse) (UniProt P21278); assay: co-IP; HEK293T cells transiently cotransfected; native lysis solution (1% Triton X-100, 150 mM NaCl, 10 mM Tris-HCl pH 7.5, 1 mM EDTA, 1 mM EGTA, 0.5% Igepal, 10% sucrose), 4°C; Gα11 immunoprecipitated with anti-myc, GαS with anti-GαS; TRPC1 detected in the complexes with 1F1
T1 sequence: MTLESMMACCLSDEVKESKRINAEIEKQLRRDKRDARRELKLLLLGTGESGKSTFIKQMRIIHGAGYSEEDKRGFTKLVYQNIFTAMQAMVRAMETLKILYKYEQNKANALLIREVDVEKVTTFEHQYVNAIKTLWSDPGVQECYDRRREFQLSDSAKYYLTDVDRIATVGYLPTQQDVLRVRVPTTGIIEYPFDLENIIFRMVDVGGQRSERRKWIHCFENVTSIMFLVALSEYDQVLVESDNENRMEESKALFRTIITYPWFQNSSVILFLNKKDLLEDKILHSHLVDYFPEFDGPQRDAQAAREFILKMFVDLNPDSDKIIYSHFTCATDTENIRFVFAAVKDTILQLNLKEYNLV

binding, binds:
long form of TRPC1α (mouse)
short form of TRPC1ε (mouse)
long form of TRPC1ε (mouse)
